## Library screening results

Source: ChEMBL document CHEMBL3988442, “University of Dundee, Small-Polar-MMV Screening Library” (2021).

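Viability assay of Plasmodium falciparum sporozoites; the read-out is not stated. The concentration is filed as 10 mM, unlikely as a test dose, so the dose is not known. Direction is inferred from retests: higher values go with lower viability. Strong results were mostly tested again. About 34,000 compounds were tested under these conditions; 0.84% (about 280) showed 50% or more at least once.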

Values are the deposited “Percent Effect”, in %.
How 0% and 100% were set is not recorded. Most values in the screen are low, and negative values occur.
The compounds are a random part of those screened.
Two or more numbers in one place are separate tests of the same structure; such repeats can differ widely.

CCc1ccc(CNC(=O)NC2CCCc3c2cnn3CCO)s1 (stereo not shown) gave -26.54% and -13.73% and -14.65%. Result for Cn1ccnc1CN1CCCN(C(=O)c2ccc3ccccc3c2)CC1 was 10.39%. For Cc1cc(CC(C)Nc2ncc(C)c(N(C)C)n2)[nH]n1 (stereo not shown) the result was 7.193%. For Cc1ccc(N2CCCC(N3CCC4(CC3)OCCO4)C2=O)cc1 (stereo not shown) the result was -4.343%. For CN1C(=O)CC(C(=O)O)C12CCN(c1ccc3c(n1)CCCC3)CC2 (stereo not shown) the result was -7.538%. COc1ccccc1Oc1cncc(C2CCCN(C)C2)n1 (stereo not shown) read 2.337%. With [H][C@@]12COC[C@@H](CC(=O)N3CCCC3)[C@]1([H])CN(Cc1ccsc1)C2 the screen gave -2.737%.

With Cc1ccc(S(=O)(=O)NC(=O)c2c(C)noc2C(C)C)cc1C the screen gave -15.45%. With Cl.c1cnc2c(c1)cc(C1CCOCC1)n2CCN1CCOCC1 the screen gave -11.02%. Cc1cc(CN(C)c2nc(-c3ccco3)nc3c2CCN(C)CC3)on1 read 1.253%. With CS(=O)(=O)N1Cc2ccccc2C2(CCN(C(=O)c3ccno3)CC2)C1 the screen gave -1.671%. CC(=O)NCc1ccc(C(=O)N2CCCC2c2cnn(C)c2)o1 (stereo not shown) gave -3.341%. O=C(O)C(F)(F)F.[H][C@@]12CCC(=O)N(c3cnn(C)c3)[C@]1([H])CCN2Cc1ccc(OC)cc1 read 5.565%. With Cc1cc(N(C)C)nc(C2(C)CCCN2C(=O)c2ccn(C)n2)n1 (stereo not shown) the screen gave 7.115%.

With Cc1ncc2c(n1)CN(Cc1ncc(C(C)(C)C)o1)CC2 the screen gave -9.212%. Cc1cccc(NC(=O)[C@@H]2CCCN2Cc2cnc3ccccn23)n1 gave 1.225%. Result for Cc1csc(C2(NCC(O)COc3ccc(F)cc3)CCC2)n1 (stereo not shown) was -7.543%. With CNc1cccc(C2CCCN(C(=O)c3ccncc3)C2)n1 (stereo not shown) the screen gave -3.673%. With CCN1CCC(NC(=O)CN2CCCC2Cn2cncn2)CC1 (stereo not shown) the screen gave 0.9547% and -30.34% and -20.75%. With Cc1nc(CN2CCCC(NCc3c(C)nc4sccn34)C2)no1 (stereo not shown) the screen gave 6.541%. NC(=O)N1CCc2ncc(CNC(=O)CC3CC3)n2CC1 gave 17.16%.

CCN(CC)CC1CCN(C(=O)CCn2cccn2)CC1 read 7.775%. For Cc1cnc(N2CCC3(C2)CN(S(=O)(=O)C2CC2)C3)nc1 the result was -4.514%. For Cl.O=C(c1ccnc(C2CCNCC2)c1)N1CCCOCC1 the result was 12.11%. For Cc1nc(-c2ccsc2)ccc1C(=O)N1CCn2c(C)nnc2C1 the result was -3.671%. With CNc1cc(CNC(=O)c2ccccc2)nc(-c2ccncc2)n1 the screen gave -6.991%. Result for Cc1cc2c(cc1C)C(NCc1nnc3n1CCCCC3)CCCO2 (stereo not shown) was -7.151%. With CC(C)Cn1c2c(ccc1=O)CC(NC(=O)c1ccsc1)CC2 (stereo not shown) the screen gave 1.789%.

COCCN1CC[C@]2(CN(C(=O)c3cccs3)C[C@H]2C)C1=O read -0.3069%. Result for O=C(Cc1ccc2c(c1)CCO2)N1CCN(c2cnccn2)CC1 was 4.287%. For CCS(=O)(=O)N1CCc2ccc(NC(=O)Nc3ccc(F)cc3F)cc21 the result was -19.55%. With [H][C@@]12CCN(C(=O)c3ccnnc3)C[C@@]1([H])O[C@@H](c1ccncn1)C2 the screen gave -16.55%. For CC(C)CCN1CC2(CCN(C3CCCOC3)CC2)OC1=O (stereo not shown) the result was -5.702%. For CC(=O)NCC(=O)N1CCn2cc(CN3CCN(C)CC3)nc2C1.O=C(O)C(F)(F)F.O=C(O)C(F)(F)F the result was -9.815%. With O=C(NCCc1ccccc1)NCC(O)c1cccc(F)c1 (stereo not shown) the screen gave 0.2269%.

O=C(O)C(F)(F)F.O=C(c1cccc(Cl)c1)N1CCCC2(CCCNC2)C1 (stereo not shown) read 7.638%. For CC1c2ncc(Cn3cccn3)n2CCN1Cc1ccc(F)cc1.O=C(O)C(F)(F)F (stereo not shown) the result was -4.895%. COCCN(Cc1ccoc1)C(=O)c1ccc(Cl)s1 gave 6.356%. CN(C)c1ccc(C(=O)N2CCCC(n3cncn3)C2)nn1 (stereo not shown) gave 9.368%. With O=C(NN1CCCc2ccccc21)c1c[nH]c(=O)[nH]1 the screen gave -5.861%. With O=C1CN(C(=O)CCn2c(C(F)(F)F)cc3cccnc32)CCN1 the screen gave -7.584%. Result for CC(C)n1cc(CN2CCCN(C(=O)c3nccnc3N)CC2)cn1 was 11.05%.

Once more, the final 4:

- CN(C)c1ccc(C(=O)N2CCCC(n3cncn3)C2)nn1 (stereo not shown) : 9.368%
- O=C(NN1CCCc2ccccc21)c1c[nH]c(=O)[nH]1 : -5.861%
- O=C1CN(C(=O)CCn2c(C(F)(F)F)cc3cccnc32)CCN1 : -7.584%
- CC(C)n1cc(CN2CCCN(C(=O)c3nccnc3N)CC2)cn1 : 11.05%